Test results: PubChem BioAssay AID330 (DTP/NCI, 2004)
The list is a part of this screen's results and no random one: it gathers tests that were run many times, whatever their T/C, doses with no T/C, and many T/C values between a quarter and a half above the control. Further doses and runs are listed elsewhere. T/C gives the treated animals as a percentage of the vehicle group. Some doses have a count of surviving animals in place of a T/C: the source files T/C as zero there, which appears to mark a toxic dose or a test without result, not a measured value. Some survivor counts are full or nearly so, which does not show that the dose was tolerated: the source hardly ever lists a survival T/C far under the control, and the zero likely stands for such cases as well. Survivors were counted at the toxicity check, usually on the fifth day, unless a day is given; later deaths do not show. Schedules are NCI's codes, read here as Q, the interval in days (D) or hours (H), X, the number of doses. Signs of the kind (2×) say how often a value occurs here. For survival time, this PubChem deposit counts one and a half times the control or more as active, and values a quarter to a half above the control carry no call in these data; other NCI protocols may use other cut-offs. Some doses were run more than once; the results are listed from low to high.

System: P388 leukemia ip, CD2F1 mice, survival T/C
Assay: NCI In Vivo Anticancer Drug Screen. Data for tumor model P388 Leukemia (intraperitoneal) in CD2F1 (CDF1) mice
Settings: T/C endpoint: median survival time, higher T/C = longer survival
[1] = dose: 200.0 mg/kg/injection, schedule: Q01DX009 (ip), vehicle: saline
[2] = dose: 50.0 mg/kg/injection, schedule: Q01DX005 (ip), vehicle: saline with Tween-80
[3] = dose: 200.0 mg/kg/injection, schedule: Q01DX005 (ip), vehicle: saline with Tween-80
[4] = dose: 200.0 mg/kg/injection, schedule: Q01DX005 (ip), vehicle: saline
[5] = dose: 100.0 mg/kg/injection, schedule: Q04DX003 (ip), vehicle: saline with Tween-80
[6] = dose: 200.0 mg/kg/injection, schedule: Q01DX009 (ip), vehicle: Klucel (hydroxypropylcellulose) (HPC)
[7] = dose: 200.0 mg/kg/injection, schedule: Q04DX003 (ip), vehicle: saline with Tween-80
[8] = dose: 400.0 mg/kg/injection, schedule: Q04DX003 (ip), vehicle: saline with Tween-80
[9] = dose: 60.0 mg/kg/injection, schedule: Q01DX005 (ip), vehicle: saline with Tween-80
[10] = dose: 120.0 mg/kg/injection, schedule: Q01DX005 (ip), vehicle: saline with Tween-80
[11] = dose: 240.0 mg/kg/injection, schedule: Q01DX005 (ip), vehicle: saline with Tween-80

SMILES: CCC[CH2][Sn]([CH2]CCC)([CH2]CCC)[CH2]CCN(C)C
- survivor count [1]: 0 of 6

SMILES: COc1cc2c(c(OC)c1OC)CCC1C(=O)NN=C21 (stereo not drawn)
- survivor count (dose: 100.0 mg/kg/injection, schedule: Q04DX003 (ip), vehicle: Klucel (hydroxypropylcellulose) (HPC)): 6 of 6
- survivor count (dose: 200.0 mg/kg/injection, schedule: Q04DX003 (ip), vehicle: Klucel (hydroxypropylcellulose) (HPC)): 6 of 6
- survivor count (dose: 400.0 mg/kg/injection, schedule: Q04DX003 (ip), vehicle: Klucel (hydroxypropylcellulose) (HPC)): 6 of 6

SMILES: NCC=C1C2CC3CC(C2)CC1C3
- survivor count (dose: 25.0 mg/kg/injection, schedule: Q01DX009 (ip), vehicle: saline): 6 of 6
- survivor count (dose: 50.0 mg/kg/injection, schedule: Q01DX009 (ip), vehicle: saline): 6 of 6
- survivor count (dose: 100.0 mg/kg/injection, schedule: Q01DX009 (ip), vehicle: saline): 2 of 6
- survivor count [1]: 0 of 6

SMILES: N#CC1=C(N)CCC1
- survivor count (dose: 25.0 mg/kg/injection, schedule: Q01DX009 (ip), vehicle: saline with Tween-80): 0 of 6

SMILES: CC1=NNC(=O)C1(Br)Br
- survivor count (dose: 25.0 mg/kg/injection, schedule: Q01DX009 (ip), vehicle: Klucel (hydroxypropylcellulose) (HPC)): 3 of 6

SMILES: O=C(N/N=C/c1c(O)ccc2ccccc12)C(=O)N/N=C/c1c(O)ccc2ccccc12
- T/C [2]: 144 % of control
- survivor count (dose: 100.0 mg/kg/injection, schedule: Q01DX005 (ip), vehicle: saline with Tween-80): 6 of 6
- survivor count [3]: 4 of 6

SMILES: CC(=O)Oc1ccc(CO)cc1OC(C)=O
- survivor count [4]: 1 of 6
- survivor count (dose: 400.0 mg/kg/injection, schedule: Q01DX005 (ip), vehicle: saline): 0 of 6

SMILES: CCC(CNc1cc(OC)cc2cccnc12)NC1CCCCC1 (stereo not drawn)
- survivor count (dose: 100.0 mg/kg/injection, schedule: Q01DX005 (ip), vehicle: saline): 0 of 5
- survivor count [4]: 0 of 5

SMILES: O=[N+]([O-])c1cccc(N2CN(c3ccccc3)NC(c3ccccc3)=N2)c1
- survivor count [5]: 5 of 6

SMILES: O=C1C(N2CC2)=C(N2CC2)C(=O)c2ncncc21
- T/C (dose: 10.0 mg/kg/injection, schedule: Q01DX005 (ip), vehicle: saline): 125 % of control

SMILES: Cc1ccc2nc(NC(=S)S)sc2c1
- survivor count (dose: 50.0 mg/kg/injection, schedule: Q01DX009 (ip), vehicle: Klucel (hydroxypropylcellulose) (HPC)): 6 of 6
- survivor count [6]: 6 of 6

SMILES: O=S(=O)(O)O.[Cu+2].[NH-]CC[N-]CC[N-]CC[NH-]
- survivor count (dose: 50.0 mg/kg/injection, schedule: Q04DX002 (ip), vehicle: saline): 0 of 6
- survivor count (dose: 100.0 mg/kg/injection, schedule: Q04DX002 (ip), vehicle: saline): 0 of 6
- survivor count (dose: 200.0 mg/kg/injection, schedule: Q04DX002 (ip), vehicle: saline): 0 of 6

SMILES: C=C1C(=O)OC2/C=C(/C)C3OC3/C=C(/C(=O)OC)C(OC(C)=O)C(OC(=O)C3(C)OC3C)C12 (stereo not drawn)
- T/C (dose: 3.0 mg/kg/injection, schedule: Q01DX009 (ip), vehicle: Klucel (hydroxypropylcellulose) (HPC)): 127 and 132 % of control
- T/C (dose: 6.0 mg/kg/injection, schedule: Q01DX009 (ip), vehicle: Klucel (hydroxypropylcellulose) (HPC)): 131 and 133 % of control
- T/C (dose: 12.0 mg/kg/injection, schedule: Q01DX009 (ip), vehicle: Klucel (hydroxypropylcellulose) (HPC)): 131 % of control
- survivor count (dose: 24.0 mg/kg/injection, schedule: Q01DX009 (ip), vehicle: Klucel (hydroxypropylcellulose) (HPC)): 5 of 6

SMILES: Oc1ccc2ccccc2c1/C=N/NC(=S)N/N=C/c1c(O)ccc2ccccc12
- survivor count (dose: 3.0 mg/kg/injection, schedule: Q01DX005 (ip), vehicle: saline with Tween-80): 6 of 6
- survivor count (dose: 12.5 mg/kg/injection, schedule: Q01DX005 (ip), vehicle: saline with Tween-80): 6 of 6
- survivor count (dose: 25.0 mg/kg/injection, schedule: Q01DX005 (ip), vehicle: saline with Tween-80): 6 of 6
- survivor count [2]: 6 of 6 (2×)

SMILES: CCN(CC)CCCC(C)Nc1c2ccc(Cl)cc2nc2cc(N=Nc3cccc4ccccc34)c(OC)cc12 (stereo not drawn)
- survivor count [5]: 4 of 6
- survivor count [7]: 1 of 6
- survivor count [8]: 0 of 6

SMILES: O=C(CNC(=O)Nc1ccc(Cl)c(Cl)c1)N/N=C/c1c(O)ccc2ccccc12
- survivor count (dose: 30.0 mg/kg/injection, schedule: Q01DX005 (ip), vehicle: saline with Tween-80): 6 of 6
- survivor count [9]: 6 of 6
- survivor count [10]: 6 of 6

SMILES: [N-]=[N+]=NCC(=O)N1c2ccccc2Sc2ccccc21
- survivor count (dose: 400.0 mg/kg/injection, schedule: Q01DX009 (ip), vehicle: other): 4 of 6

SMILES: C/C=C(\C)c1cc(=O)c2c(C)cc3c(c2o1)C(=O)c1c(O)c(C2CC(C)(N(C)C)C(O)C(C)O2)cc(C2CC(N(C)C)C(O)C(C)O2)c1C3=O (stereo not drawn)
- T/C (dose: 0.15 mg/kg/injection, schedule: Q01DX009 (ip), vehicle: saline): 144 % of control
- T/C (dose: 0.5 mg/kg/injection, schedule: Q01DX009 (ip), vehicle: Klucel (hydroxypropylcellulose) (HPC)): 133 % of control
- survivor count (dose: 0.62 mg/kg/injection, schedule: Q01DX009 (ip), vehicle: saline): 5 of 6
- T/C (dose: 1.0 mg/kg/injection, schedule: Q01DX009 (ip), vehicle: Klucel (hydroxypropylcellulose) (HPC)): 136 % of control
- T/C (dose: 1.25 mg/kg/injection, schedule: Q01DX009 (ip), vehicle: saline): 144 % of control
- survivor count (dose: 2.5 mg/kg/injection, schedule: Q01DX009 (ip), vehicle: saline): 6 of 6
- T/C (dose: 3.13 mg/kg/injection, schedule: Q01DX009 (ip), vehicle: saline with Tween-80): 136 % of control
- T/C (dose: 4.0 mg/kg/injection, schedule: Q01DX009 (ip), vehicle: Klucel (hydroxypropylcellulose) (HPC)): 133 % of control
- survivor count (dose: 4.0 mg/kg/injection, schedule: Q01DX009 (ip), vehicle: saline): 6 of 6
- survivor count (dose: 12.5 mg/kg/injection, schedule: Q01DX009 (ip), vehicle: saline with Tween-80): 5 of 6

SMILES: COC(=O)c1cc(C=C(C)C)[nH]c(=O)c1C#N
- survivor count (dose: 120.0 mg/kg/injection, schedule: Q01DX005 (ip), vehicle: saline): 3 of 6
- survivor count (dose: 240.0 mg/kg/injection, schedule: Q01DX005 (ip), vehicle: saline): 0 of 6

SMILES: CN(C)/C(=N\O)c1ccccc1
- survivor count (dose: 12.5 mg/kg/injection, schedule: Q04DX003 (ip), vehicle: saline): 3 of 6
- survivor count (dose: 25.0 mg/kg/injection, schedule: Q04DX003 (ip), vehicle: saline): 0 of 6
- survivor count (dose: 50.0 mg/kg/injection, schedule: Q04DX003 (ip), vehicle: saline): 0 of 6
- survivor count [5]: 0 of 6
- survivor count [7]: 0 of 6
- survivor count [8]: 0 of 6

SMILES: COC(=O)N1c2ccccc2C(c2ccccc2)=NC1C#N (stereo not drawn)
- survivor count [9]: 6 of 6
- survivor count [10]: 0 of 6
- survivor count [11]: 0 of 6

SMILES: Cc1nc(N)[nH]c(=O)c1CCCCC#N
- survivor count (dose: 240.0 mg/kg/injection, schedule: Q01DX005 (ip), vehicle: Klucel (hydroxypropylcellulose) (HPC)): 2 of 6

SMILES: CCNC(=O)OCc1cnc(C)c(O)c1COC(=O)NCC
- survivor count [3]: 6 of 6

SMILES: CC(C)c1cc(C(C)C)c(S(=O)(=O)ON)c(C(C)C)c1
- survivor count (dose: 400.0 mg/kg/injection, schedule: Q04DX002 (ip), vehicle: saline): 0 of 6

SMILES: CC1(c2ccc(N)cc2)NC(=O)NC1=O (stereo not drawn)
- survivor count [6]: 5 of 6

SMILES: O=C(Oc1ccccc1)N1CCCSC1=S
- survivor count [11]: 2 of 6

SMILES: Oc1ccc(CCC2CCC(c3ccc(O)cc3)CO2)cc1 (stereo not drawn)
- survivor count (dose: 50.0 mg/kg/injection, schedule: Q01DX005 (ip), vehicle: Klucel (hydroxypropylcellulose) (HPC)): 6 of 6

SMILES: c1cc2c3c(c1)CCC3CCC2 (stereo not drawn)
- survivor count (dose: 200.0 mg/kg/injection, schedule: Q01DX009 (ip), vehicle: saline with Tween-80): 6 of 6
- survivor count (dose: 400.0 mg/kg/injection, schedule: Q01DX009 (ip), vehicle: saline with Tween-80): 0 of 6
